Compound in assay [1]: Nc1ncnc2c1ncn2[C@@H]1O[C@H](COP(=O)(O)OP(=O)(O)NP(=O)(O)O)[C@@H](O)[C@H]1O [adenylyl imidodiphosphate]
The assay can be described thus: NP40-soluble protein abundance relative to vehicle (solubility fold change) (ratio); higher = more soluble protein in presence of AMP-PNP. Summed up:
(§1)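 Each value is a fold change relative to the detergent-processed vehicle, calculated per replicate from vsn-normalised intensities. Jurkat crude lysate received eight concentrations (0.1 to 10 mM) for 10 min at room temperature and 3 min at 37 °C, then was solubilised in 0.8% NP40 with benzonase (60 min, 4 °C). The ultracentrifuged supernatant was TMT-labelled and run by LC-MS/MS in three independent experiments.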

Amino acid sequences for entries named in this document (tags omitted). A change or cut given only in a name is not applied to a line headed by its entry.
UniProt Q9BXJ8: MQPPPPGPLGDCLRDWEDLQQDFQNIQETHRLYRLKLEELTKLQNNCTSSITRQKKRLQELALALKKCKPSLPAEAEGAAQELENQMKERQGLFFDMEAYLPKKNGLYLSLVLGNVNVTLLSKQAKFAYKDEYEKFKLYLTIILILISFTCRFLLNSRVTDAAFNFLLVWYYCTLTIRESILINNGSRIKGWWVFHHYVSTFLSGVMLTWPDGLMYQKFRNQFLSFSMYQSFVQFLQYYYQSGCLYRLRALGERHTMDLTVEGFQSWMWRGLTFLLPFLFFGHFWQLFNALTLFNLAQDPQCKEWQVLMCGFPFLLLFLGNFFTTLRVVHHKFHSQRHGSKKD
UniProt Q99417: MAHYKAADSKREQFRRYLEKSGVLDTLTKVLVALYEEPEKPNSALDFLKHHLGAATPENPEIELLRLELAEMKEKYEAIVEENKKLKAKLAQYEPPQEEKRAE
UniProt Q9BSV6: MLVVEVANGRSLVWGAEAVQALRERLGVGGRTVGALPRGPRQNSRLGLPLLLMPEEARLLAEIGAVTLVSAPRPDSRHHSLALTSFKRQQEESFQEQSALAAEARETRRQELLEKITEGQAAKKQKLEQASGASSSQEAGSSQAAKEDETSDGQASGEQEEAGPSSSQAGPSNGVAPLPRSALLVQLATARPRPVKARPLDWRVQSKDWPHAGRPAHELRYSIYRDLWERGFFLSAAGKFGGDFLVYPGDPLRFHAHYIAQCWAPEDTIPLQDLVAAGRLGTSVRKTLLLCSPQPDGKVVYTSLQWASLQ
UniProt Q9UQ90: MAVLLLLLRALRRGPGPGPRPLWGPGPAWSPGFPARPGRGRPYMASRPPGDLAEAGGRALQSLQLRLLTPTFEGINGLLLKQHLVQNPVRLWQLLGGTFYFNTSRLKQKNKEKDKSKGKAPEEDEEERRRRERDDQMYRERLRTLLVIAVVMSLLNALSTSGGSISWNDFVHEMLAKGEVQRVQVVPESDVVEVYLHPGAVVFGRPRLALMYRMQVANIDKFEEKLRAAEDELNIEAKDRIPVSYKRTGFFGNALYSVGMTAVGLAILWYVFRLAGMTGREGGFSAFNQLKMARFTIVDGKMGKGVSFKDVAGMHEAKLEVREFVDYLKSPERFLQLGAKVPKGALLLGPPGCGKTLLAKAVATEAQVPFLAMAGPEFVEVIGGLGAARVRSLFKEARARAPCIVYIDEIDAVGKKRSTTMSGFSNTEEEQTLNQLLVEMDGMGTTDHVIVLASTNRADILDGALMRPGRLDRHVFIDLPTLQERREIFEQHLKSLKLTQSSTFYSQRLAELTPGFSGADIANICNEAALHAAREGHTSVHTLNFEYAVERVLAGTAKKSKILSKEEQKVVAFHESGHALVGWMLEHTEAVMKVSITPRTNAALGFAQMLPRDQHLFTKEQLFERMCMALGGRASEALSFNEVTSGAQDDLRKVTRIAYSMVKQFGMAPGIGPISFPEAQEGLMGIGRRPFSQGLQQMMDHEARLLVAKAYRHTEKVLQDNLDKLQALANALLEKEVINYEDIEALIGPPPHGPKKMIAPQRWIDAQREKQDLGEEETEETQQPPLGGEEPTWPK
UniProt Q9Y3E1: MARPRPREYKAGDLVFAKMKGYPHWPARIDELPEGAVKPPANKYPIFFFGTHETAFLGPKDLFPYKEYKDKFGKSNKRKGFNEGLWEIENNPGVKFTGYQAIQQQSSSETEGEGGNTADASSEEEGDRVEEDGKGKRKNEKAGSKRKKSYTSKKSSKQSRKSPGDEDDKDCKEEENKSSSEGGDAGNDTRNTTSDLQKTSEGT
UniProt P46087: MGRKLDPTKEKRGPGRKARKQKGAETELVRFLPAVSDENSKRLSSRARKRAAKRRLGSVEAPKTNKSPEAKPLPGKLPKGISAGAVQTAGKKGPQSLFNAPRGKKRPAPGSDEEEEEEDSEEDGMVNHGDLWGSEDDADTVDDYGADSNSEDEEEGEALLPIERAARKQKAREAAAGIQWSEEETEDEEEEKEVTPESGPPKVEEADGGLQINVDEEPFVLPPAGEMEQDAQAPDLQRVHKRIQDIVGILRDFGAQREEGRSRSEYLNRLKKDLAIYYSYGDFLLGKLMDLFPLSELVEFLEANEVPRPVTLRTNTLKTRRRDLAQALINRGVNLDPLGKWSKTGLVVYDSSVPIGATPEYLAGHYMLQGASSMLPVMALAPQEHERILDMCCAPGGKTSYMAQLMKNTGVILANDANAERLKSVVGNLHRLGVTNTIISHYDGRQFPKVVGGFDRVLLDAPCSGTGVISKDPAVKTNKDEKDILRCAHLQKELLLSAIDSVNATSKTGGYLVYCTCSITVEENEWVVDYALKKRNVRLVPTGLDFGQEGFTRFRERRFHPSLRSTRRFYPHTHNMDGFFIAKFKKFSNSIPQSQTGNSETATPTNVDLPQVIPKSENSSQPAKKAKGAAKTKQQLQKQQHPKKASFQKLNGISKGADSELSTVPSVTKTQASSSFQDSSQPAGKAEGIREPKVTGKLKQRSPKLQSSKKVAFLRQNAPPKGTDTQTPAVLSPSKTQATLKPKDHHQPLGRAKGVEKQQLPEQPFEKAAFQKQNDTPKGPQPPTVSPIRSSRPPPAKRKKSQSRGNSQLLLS
UniProt Q9Y6I9: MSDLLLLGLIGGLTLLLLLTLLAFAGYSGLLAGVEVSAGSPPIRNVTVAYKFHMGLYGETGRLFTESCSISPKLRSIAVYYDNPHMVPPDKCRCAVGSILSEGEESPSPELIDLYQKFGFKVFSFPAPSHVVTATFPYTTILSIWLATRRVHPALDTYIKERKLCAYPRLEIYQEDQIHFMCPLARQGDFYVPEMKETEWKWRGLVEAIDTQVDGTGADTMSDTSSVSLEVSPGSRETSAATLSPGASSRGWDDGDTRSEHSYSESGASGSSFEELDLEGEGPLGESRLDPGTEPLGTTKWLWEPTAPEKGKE
UniProt O75503: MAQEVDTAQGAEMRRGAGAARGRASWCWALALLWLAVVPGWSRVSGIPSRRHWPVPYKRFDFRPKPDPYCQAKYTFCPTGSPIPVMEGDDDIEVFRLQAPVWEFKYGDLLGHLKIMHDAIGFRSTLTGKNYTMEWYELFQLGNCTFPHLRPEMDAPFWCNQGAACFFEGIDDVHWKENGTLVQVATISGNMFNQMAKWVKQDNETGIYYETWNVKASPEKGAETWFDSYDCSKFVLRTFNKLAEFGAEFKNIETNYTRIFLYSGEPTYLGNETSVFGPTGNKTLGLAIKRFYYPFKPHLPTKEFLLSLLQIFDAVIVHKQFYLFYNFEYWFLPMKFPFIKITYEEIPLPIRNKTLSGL
UniProt Q14241: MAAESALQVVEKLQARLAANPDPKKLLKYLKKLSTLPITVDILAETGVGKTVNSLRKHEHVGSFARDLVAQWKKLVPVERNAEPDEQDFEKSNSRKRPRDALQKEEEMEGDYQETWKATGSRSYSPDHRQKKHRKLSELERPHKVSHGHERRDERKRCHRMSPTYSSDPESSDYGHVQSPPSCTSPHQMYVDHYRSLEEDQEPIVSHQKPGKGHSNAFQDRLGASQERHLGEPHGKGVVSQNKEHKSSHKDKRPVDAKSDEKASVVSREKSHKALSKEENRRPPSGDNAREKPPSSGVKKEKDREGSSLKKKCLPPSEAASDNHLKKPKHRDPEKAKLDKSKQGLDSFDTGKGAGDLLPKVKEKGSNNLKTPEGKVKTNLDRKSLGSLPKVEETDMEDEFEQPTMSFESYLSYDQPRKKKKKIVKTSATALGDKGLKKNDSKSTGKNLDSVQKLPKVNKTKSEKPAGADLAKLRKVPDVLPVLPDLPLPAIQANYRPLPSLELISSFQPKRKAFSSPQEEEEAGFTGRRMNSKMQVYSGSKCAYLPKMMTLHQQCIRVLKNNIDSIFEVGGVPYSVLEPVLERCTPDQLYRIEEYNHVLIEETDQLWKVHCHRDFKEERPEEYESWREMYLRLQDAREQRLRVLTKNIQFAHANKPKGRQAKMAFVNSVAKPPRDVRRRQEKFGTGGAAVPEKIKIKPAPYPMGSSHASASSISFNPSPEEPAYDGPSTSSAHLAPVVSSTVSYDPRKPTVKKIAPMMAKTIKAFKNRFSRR
UniProt Q9Y263: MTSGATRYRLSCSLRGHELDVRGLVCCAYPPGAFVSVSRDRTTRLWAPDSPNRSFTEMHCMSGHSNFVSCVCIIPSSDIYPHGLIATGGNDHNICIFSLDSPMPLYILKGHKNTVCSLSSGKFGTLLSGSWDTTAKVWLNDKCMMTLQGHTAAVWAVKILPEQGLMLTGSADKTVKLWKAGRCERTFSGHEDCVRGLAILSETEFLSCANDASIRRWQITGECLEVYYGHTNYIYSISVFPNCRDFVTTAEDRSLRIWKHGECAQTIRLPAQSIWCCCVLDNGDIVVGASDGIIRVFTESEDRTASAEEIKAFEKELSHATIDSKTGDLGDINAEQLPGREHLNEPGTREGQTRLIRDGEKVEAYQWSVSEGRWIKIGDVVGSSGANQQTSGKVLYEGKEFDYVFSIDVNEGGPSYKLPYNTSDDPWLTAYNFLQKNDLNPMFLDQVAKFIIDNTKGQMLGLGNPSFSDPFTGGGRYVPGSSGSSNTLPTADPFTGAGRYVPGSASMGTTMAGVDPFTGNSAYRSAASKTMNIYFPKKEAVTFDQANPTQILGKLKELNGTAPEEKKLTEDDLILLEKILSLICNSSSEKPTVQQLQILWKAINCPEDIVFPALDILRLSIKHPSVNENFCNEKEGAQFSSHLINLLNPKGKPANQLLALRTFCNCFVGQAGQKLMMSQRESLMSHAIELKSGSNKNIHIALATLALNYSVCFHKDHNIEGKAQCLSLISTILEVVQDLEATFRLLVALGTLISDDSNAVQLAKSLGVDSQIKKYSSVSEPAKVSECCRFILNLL
UniProt Q9H299: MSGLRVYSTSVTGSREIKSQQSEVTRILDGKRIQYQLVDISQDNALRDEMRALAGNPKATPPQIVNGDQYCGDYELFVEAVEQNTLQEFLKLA
UniProt Q9NV06: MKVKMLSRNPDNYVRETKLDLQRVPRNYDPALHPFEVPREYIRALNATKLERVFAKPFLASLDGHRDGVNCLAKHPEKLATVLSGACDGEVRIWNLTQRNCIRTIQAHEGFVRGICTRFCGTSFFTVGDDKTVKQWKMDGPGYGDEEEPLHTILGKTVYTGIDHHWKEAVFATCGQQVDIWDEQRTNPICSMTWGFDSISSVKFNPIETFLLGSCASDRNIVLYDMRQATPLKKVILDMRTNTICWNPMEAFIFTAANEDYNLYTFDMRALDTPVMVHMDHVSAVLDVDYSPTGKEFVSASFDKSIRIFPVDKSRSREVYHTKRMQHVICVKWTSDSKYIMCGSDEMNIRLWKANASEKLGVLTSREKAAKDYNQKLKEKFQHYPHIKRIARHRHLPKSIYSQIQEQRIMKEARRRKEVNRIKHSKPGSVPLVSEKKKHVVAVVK
UniProt Q8WWP7: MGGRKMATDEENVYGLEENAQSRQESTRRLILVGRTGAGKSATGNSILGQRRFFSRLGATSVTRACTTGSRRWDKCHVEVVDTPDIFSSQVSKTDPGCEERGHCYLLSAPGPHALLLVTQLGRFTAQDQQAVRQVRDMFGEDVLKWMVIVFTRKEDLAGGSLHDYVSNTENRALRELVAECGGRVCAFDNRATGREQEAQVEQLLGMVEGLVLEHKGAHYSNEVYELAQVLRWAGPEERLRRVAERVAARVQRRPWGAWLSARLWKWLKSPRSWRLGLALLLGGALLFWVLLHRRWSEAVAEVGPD
UniProt Q6UXV4: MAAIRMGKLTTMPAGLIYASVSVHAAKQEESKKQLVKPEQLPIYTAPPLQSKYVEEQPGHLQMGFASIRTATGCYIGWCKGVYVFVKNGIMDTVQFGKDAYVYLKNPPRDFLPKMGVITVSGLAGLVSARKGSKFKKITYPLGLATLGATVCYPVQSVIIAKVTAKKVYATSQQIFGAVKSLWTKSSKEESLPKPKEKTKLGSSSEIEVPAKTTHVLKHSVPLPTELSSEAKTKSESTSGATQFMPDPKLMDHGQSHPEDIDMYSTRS

Compound in assay [2]: Nc1nc2c(ncn2[C@@H]2O[C@H](COP(=O)(O)OP(=O)(O)OP(=O)(O)O)[C@@H](O)[C@H]2O)c(=O)[nH]1 [guanosine triphosphate]
The assay can be described thus: NP40-soluble protein abundance relative to vehicle (solubility fold change) (ratio); higher = more soluble protein in presence of GTP. Summed up: as §1

± gives the standard deviation of the averaged measurements. The entries are a selection whose mix differs from that of the whole data set. Some of the results follow.

Turning to “A0A075B738|P16284 and related entries (UniProt P16284)”, the NP40-soluble protein abundance is 1.02 ± 0.027 in assay [1] (concentration: 1mM); 1.08 ± 0.095 in assay [1] (concentration: 2mM); 1.01 ± 0.033 in assay [1] (concentration: 4mM); 0.995 ± 0.011 in assay [1] (concentration: 6mM); 0.98 ± 0.013 in assay [1] (concentration: 8mM); 0.994 ± 0.032 in assay [1] (concentration: 10mM).

“A0A024R4K9|A0A087WZA9|A0A087X266|Q9BXJ8 and related entries (UniProt Q9BXJ8)”: the NP40-soluble protein abundance turned out to be 0.961 ± 0.043 in assay [1] (concentration: 1mM); 1.05 ± 0.14 in assay [1] (concentration: 2mM); 0.972 ± 0.033 in assay [1] (concentration: 4mM); 1.09 ± 0.1 in assay [1] (concentration: 6mM); 1.05 ± 0.041 in assay [1] (concentration: 8mM); 1.12 ± 0.091 in assay [1] (concentration: 10mM).

With A0A087WV05|Q99417 (UniProt Q99417), the NP40-soluble protein abundance turned out to be 0.997 ± 0.033 in assay [1] (concentration: 1mM); 1.04 ± 0.086 in assay [1] (concentration: 2mM); 0.923 ± 0.012 in assay [1] (concentration: 4mM); 0.922 ± 0.041 in assay [1] (concentration: 6mM); 0.915 ± 0.015 in assay [1] (concentration: 8mM); 0.918 ± 0.059 in assay [1] (concentration: 10mM).

As for “A0A024R4N9|Q9BSV6 and related entries (UniProt Q9BSV6)”, the NP40-soluble protein abundance in assay [1] (concentration: 1mM) amounted to 0.99 ± 0.014; in assay [1] (concentration: 2mM), 0.962 ± 0.031; in assay [1] (concentration: 4mM), 0.9702 ± 0.0062; in assay [1] (concentration: 6mM), 0.981 ± 0.047; in assay [1] (concentration: 8mM), 0.938 ± 0.041; in assay [1] (concentration: 10mM), 0.952 ± 0.048.

SPG7 (UniProt Q9UQ90): the NP40-soluble protein abundance in assay [2] (concentration: 0.1mM) came to 1.06 ± 0.042; in assay [2] (concentration: 0.5mM) it was 1.04 ± 0.077; in assay [2] (concentration: 1mM), 1.03 ± 0.096; in assay [2] (concentration: 2mM), 1.02 ± 0.068; in assay [2] (concentration: 4mM), 1.03 ± 0.11; in assay [2] (concentration: 6mM), 1.04 ± 0.099. The NP40-soluble protein abundance turned out to be 0.972 ± 0.065 in assay [2] (concentration: 8mM) and 0.997 ± 0.027 in assay [2] (concentration: 10mM).

In the case of A0A024R216|Q9Y3E1 (UniProt Q9Y3E1), the NP40-soluble protein abundance in assay [1] (concentration: 1mM) was 1 ± 0.031; in assay [1] (concentration: 2mM), 1.1 ± 0.17; in assay [1] (concentration: 4mM), 1.05 ± 0.074; in assay [1] (concentration: 6mM), 1.16 ± 0.074; in assay [1] (concentration: 8mM), 1.11 ± 0.06; in assay [1] (concentration: 10mM), 1.17 ± 0.14.

With “A0A087WV73|P46087 and related entries (UniProt P46087)”, the NP40-soluble protein abundance was found to be 1.04 ± 0.038 in assay [1] (concentration: 1mM); 1.12 ± 0.068 in assay [1] (concentration: 2mM); 1.17 ± 0.05 in assay [1] (concentration: 4mM); 1.28 ± 0.067 in assay [1] (concentration: 6mM); 1.34 ± 0.094 in assay [1] (concentration: 8mM); 1.43 ± 0.093 in assay [1] (concentration: 10mM).

For A0A087WTU3|Q9Y6I9 (UniProt Q9Y6I9), the NP40-soluble protein abundance was determined as 1.03 ± 0.02 in assay [1] (concentration: 1mM); 1.02 ± 0.034 in assay [1] (concentration: 2mM); 1.03 ± 0.021 in assay [1] (concentration: 4mM); 1 ± 0.012 in assay [1] (concentration: 6mM); 1.01 ± 0.015 in assay [1] (concentration: 8mM); 0.983 ± 0.035 in assay [1] (concentration: 10mM).

As for A0A024R644|O75503 (UniProt O75503), the NP40-soluble protein abundance in assay [1] (concentration: 1mM) came out at 1.01 ± 0.037; in assay [1] (concentration: 2mM) it was 1.05 ± 0.11; in assay [1] (concentration: 4mM) it was 1.05 ± 0.044; in assay [1] (concentration: 6mM) it was 1.06 ± 0.044; in assay [1] (concentration: 8mM), 1.09 ± 0.053; in assay [1] (concentration: 10mM), 1.09 ± 0.062.

In the case of A0A024RAC6 (UniProt Q14241), the NP40-soluble protein abundance in assay [1] (concentration: 1mM) is 1.05 ± 0.014; in assay [1] (concentration: 2mM) it was 1.13 ± 0.076; in assay [1] (concentration: 4mM) it was 1.06 ± 0.029; in assay [1] (concentration: 6mM), 1.08 ± 0.044; in assay [1] (concentration: 8mM) it was 1.06 ± 0.022; in assay [1] (concentration: 10mM), 1.09 ± 0.019.

With PLAA (UniProt Q9Y263), the NP40-soluble protein abundance in assay [2] (concentration: 0.1mM) came out at 1 ± 0.031; in assay [2] (concentration: 0.5mM), 1.02 ± 0.037; in assay [2] (concentration: 1mM), 0.949 ± 0.03; in assay [2] (concentration: 2mM), 0.956 ± 0.053; in assay [2] (concentration: 4mM) it was 0.925 ± 0.061; in assay [2] (concentration: 6mM), 0.93 ± 0.054. The results for the NP40-soluble protein abundance in assay [2] (concentration: 8mM) and in assay [2] (concentration: 10mM) were 0.918 ± 0.041 and 0.88 ± 0.056, respectively.

Regarding “A0A087WV23|Q5T123 and related entries (UniProt Q9H299)”, the NP40-soluble protein abundance in assay [1] (concentration: 1mM) amounted to 0.988 ± 0.042; in assay [1] (concentration: 2mM), 1.01 ± 0.06; in assay [1] (concentration: 4mM), 0.945 ± 0.02; in assay [1] (concentration: 6mM), 0.998 ± 0.03; in assay [1] (concentration: 8mM), 0.973 ± 0.042; in assay [1] (concentration: 10mM), 0.962 ± 0.039.

Regarding A0A087WT20|Q9NV06 (UniProt Q9NV06), the NP40-soluble protein abundance in assay [1] (concentration: 1mM) stood at 1.026 ± 0.0096; in assay [1] (concentration: 2mM) it was 0.995 ± 0.017; in assay [1] (concentration: 4mM) it was 1.04 ± 0.015; in assay [1] (concentration: 6mM), 0.997 ± 0.018; in assay [1] (concentration: 8mM), 1.027 ± 0.0046; in assay [1] (concentration: 10mM), 0.991 ± 0.023.

On to A0A087WTJ2|Q8WWP7 (UniProt Q8WWP7), for which the NP40-soluble protein abundance in assay [1] (concentration: 1mM) turned out to be 1.03 ± 0.017; in assay [1] (concentration: 2mM) it was 0.999 ± 0.064; in assay [1] (concentration: 4mM), 1.07 ± 0.025; in assay [1] (concentration: 6mM) it was 1.07 ± 0.044; in assay [1] (concentration: 8mM), 1.09 ± 0.062; in assay [1] (concentration: 10mM) it was 1.06 ± 0.045.

Turning to “A0A075B6F3|H0Y7V4 and related entries (UniProt Q96JB1)”, the NP40-soluble protein abundance in assay [1] (concentration: 1mM) came to 0.9597 ± 0.0067; in assay [1] (concentration: 2mM) it was 1.02 ± 0.035; in assay [1] (concentration: 4mM) it was 0.919 ± 0.024; in assay [1] (concentration: 6mM) it was 0.947 ± 0.059; in assay [1] (concentration: 8mM), 0.865 ± 0.025; in assay [1] (concentration: 10mM), 0.882 ± 0.012.

As for “A0A087WUX8|A0A087WYF7|Q6UXV4 (UniProt Q6UXV4)”, the NP40-soluble protein abundance in assay [1] (concentration: 1mM) was 1.06 ± 0.049; in assay [1] (concentration: 2mM), 1.08 ± 0.052; in assay [1] (concentration: 4mM), 1.06 ± 0.05; in assay [1] (concentration: 6mM), 1.06 ± 0.049; in assay [1] (concentration: 8mM), 1.08 ± 0.038; in assay [1] (concentration: 10mM) it was 1.06 ± 0.026.

These data come from the supplement of paper PMC6411743.
